PubChem BioAssay AID602196, INSERM, 2012
This is one part, drawn at random, of about 23,000 reagents tested. 455 of all reagents (2%) were called active. 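Active includes both protection and sensitisation; some change values fall well beyond the stated -50 to +50 range.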 Unmarked entries are inactive. Further read-outs or replicates are left out here. No sequences are given here. Not given: the amount of reagent.

- Screen: 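Knock-downs that protect lung cancer cells from cisplatin or sensitise them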
- Cell system: human A549 lung cancer cells
- Reagents: siRNA pair against human genes
- Time to read-out: 48 h transfection before cisplatin; time from cisplatin to read-out not stated
- Conditions: cisplatin at a dose killing half of control-siRNA cells; exact dose and duration not given
- Detection: 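Cisplatin cell death as a shift from the 50% death seen with control siRNA; siRNAs toxic or growth-blocking alone scored 0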
- Scale: two-siRNA summed score (-2 to +2): higher = both siRNAs protect from cisplatin killing; -2 means both sensitise; mean protection from cisplatin (shift in death) and protection from cisplatin (shift in death), siRNA C: higher = protection from cisplatin killing
- Rule for the call: 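siRNAs harmful alone (LDH or WST-1) get 0; others get +1 for less and -1 for more cisplatin killing; genes are active when the two siRNAs give the same sign, summing to ±2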
- Calls: active = both siRNAs shift cisplatin killing the same way; inactive = no consistent shift, or siRNA harmful alone

| target gene | two-siRNA summed score (-2 to +2) | mean protection from cisplatin (shift in death) (%) | protection from cisplatin (shift in death), siRNA C (%) |
| --- | --- | --- | --- |
| PTP4A2 (GeneID 8073) | 0 | -2.8 | 4.7 |
| CD22 (GeneID 933) | 0 | -5.2 | -17.3 |
| CNBD1 (GeneID 168975) | 0 | 7 | -3.7 |
| GPR4 (GeneID 2828) | 1 | 15 | -2.4 |
| RUNX1 (GeneID 861) | 0 | -9.1 | -13.4 |
| SAMD9L (GeneID 219285) | 1 | 11.4 | 13.5 |
| COQ10B (GeneID 80219) | 0 | 5.2 | 8.5 |
| STIP1 (GeneID 10963) | -1 | 1.1 | -8.2 |
| HNRNPC (GeneID 3183) | 0 | 2 | 9.2 |
| ZNF527 (GeneID 84503) | 0 | 5.4 | -5 |
| CCL7 (GeneID 6354) | 1 | 14.3 | 22.4 |
| SERPINA1 (GeneID 5265) | 0 | -2 | 3.6 |
| EPS15L1 (GeneID 58513) | -1 | -19.8 | -28.4 |
| LOC387927 | 0 | 16.9 | -9.8 |
| ZNF385A (GeneID 25946) | 0 | 0.1 | -3.1 |
| NYAP2 (GeneID 57624) | 0 | 10.3 | 20.6 |
| FOXC1 (GeneID 2296) | 0 | 12 | 17.5 |
| COX4I2 (GeneID 84701) | 0 | 0.3 | -5.3 |
| POFUT1 (GeneID 23509) | -1 | -27 | -19.5 |
| LIN7C (GeneID 55327) | 0 | 8.5 | 11 |
| LOC347454 | 0 | -11.5 | -10.6 |
| MPP7 (GeneID 143098) | 1 | 6.6 | 14.4 |
| COMMD10 (GeneID 51397) | 0 | 1.4 | 4.6 |
| TMEM44 (GeneID 93109) | 0 | 0.2 | 11.6 |
| SLC35A2 (GeneID 7355) | 0 | 1.2 | -5.9 |
| PWWP3B (GeneID 139221) | 0 | -0.1 | 16 |
| GEMIN7 (GeneID 79760) | 0 | 8.8 | 3.5 |
| FAM20B (GeneID 9917) | 0 | 12.2 | 11.7 |
| MAP2K7 (GeneID 5609) | 0 | 6.3 | 10.1 |
| UCP2 (GeneID 7351) | 0 | -2.4 | -10.1 |
| GRK5 (GeneID 2869) | 0 | -0.9 | -0.1 |
| CDK18 (GeneID 5129) | 0 | -18.6 | -14.6 |
| LOC441141 | 0 | -4.3 | 3 |
| MAOA (GeneID 4128) | 0 | 5.1 | 4.5 |
| SUV39H2 (GeneID 79723) | 0 | 11.8 | 6.6 |
| LOC401058 | 0 | 0.3 | -15.8 |
| TMCO1 (GeneID 54499) | 0 | 11.8 | 16.4 |
| LOC440761 | 0 | 10 | 11.3 |
| KCNJ8 (GeneID 3764) | 0 | -16.5 | 1.1 |

2 entries from above, showing only “two-siRNA summed score (-2 to +2)”.
COQ10B (GeneID 80219) = 0
STIP1 (GeneID 10963) = -1
